Laboratory results as given in publication PMC5550850.
No constants are given. Whether binding was seen depends on the method and setting. In cells and extracts the contact can be indirect. Some entries that bind do so weakly or less than the wild type.

By UniProt entry, the sequences of proteins in these tests, tags left out.
UniProt P01106: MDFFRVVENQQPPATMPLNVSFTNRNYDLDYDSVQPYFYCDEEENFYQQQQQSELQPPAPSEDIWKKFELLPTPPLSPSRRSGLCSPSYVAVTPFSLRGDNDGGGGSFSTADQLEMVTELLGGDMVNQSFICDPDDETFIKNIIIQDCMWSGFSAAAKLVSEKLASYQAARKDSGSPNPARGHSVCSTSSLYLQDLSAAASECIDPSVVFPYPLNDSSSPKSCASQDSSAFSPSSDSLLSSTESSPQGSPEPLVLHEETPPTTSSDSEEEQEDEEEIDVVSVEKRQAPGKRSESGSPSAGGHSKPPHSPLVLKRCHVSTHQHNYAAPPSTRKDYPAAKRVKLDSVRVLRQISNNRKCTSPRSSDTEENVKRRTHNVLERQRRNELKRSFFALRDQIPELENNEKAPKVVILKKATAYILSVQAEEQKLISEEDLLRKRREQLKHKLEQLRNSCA
UniProt O15379: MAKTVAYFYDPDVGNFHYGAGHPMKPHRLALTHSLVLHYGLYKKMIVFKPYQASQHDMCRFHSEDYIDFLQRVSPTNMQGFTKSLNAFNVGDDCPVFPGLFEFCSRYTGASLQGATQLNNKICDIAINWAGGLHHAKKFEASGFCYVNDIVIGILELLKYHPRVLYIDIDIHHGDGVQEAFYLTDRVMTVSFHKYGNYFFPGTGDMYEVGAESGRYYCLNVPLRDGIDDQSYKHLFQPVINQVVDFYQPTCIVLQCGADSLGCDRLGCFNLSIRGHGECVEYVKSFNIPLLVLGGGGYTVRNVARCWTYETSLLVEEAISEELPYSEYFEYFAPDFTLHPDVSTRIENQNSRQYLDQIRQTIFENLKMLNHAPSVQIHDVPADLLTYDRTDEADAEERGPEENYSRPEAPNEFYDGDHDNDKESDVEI

Biological target: c-myc (human (endogenous in CRC cell lines)) (UniProt P01106)
Assay: co-IP; co-immunoprecipitation in CRC cells; precipitating antibody, cell line and buffer not told

For HDAC3 (from UniProt O15379 1-428), the binding was “binds”.
